No constants are given. Whether binding was seen depends on the method and setting. In cells and extracts the contact can be indirect. Tags and fused reporters may be left off the sequences shown.
Target: T1, myc-tagged SETD3 (SET domain-containing 3) (UniProt Q86TU7)
T1 sequence: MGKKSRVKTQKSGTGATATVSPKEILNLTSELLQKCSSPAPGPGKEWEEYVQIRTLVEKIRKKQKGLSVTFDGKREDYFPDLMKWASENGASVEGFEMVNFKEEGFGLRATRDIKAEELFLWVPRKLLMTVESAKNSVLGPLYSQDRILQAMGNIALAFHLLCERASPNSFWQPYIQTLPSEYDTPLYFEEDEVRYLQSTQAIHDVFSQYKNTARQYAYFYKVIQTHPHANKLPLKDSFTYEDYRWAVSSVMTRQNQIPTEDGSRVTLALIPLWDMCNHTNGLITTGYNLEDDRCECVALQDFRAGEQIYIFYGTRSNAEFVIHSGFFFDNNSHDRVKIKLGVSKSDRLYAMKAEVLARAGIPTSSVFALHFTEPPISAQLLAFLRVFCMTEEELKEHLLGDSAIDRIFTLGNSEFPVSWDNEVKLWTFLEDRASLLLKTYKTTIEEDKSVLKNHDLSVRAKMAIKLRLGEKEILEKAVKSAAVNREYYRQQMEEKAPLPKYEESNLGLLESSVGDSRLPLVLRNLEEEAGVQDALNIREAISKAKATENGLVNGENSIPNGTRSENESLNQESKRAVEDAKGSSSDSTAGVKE
Experiment: co-IP; truncated mutants of USP27 tested with SETD3 (Fig. 1I) and of SETD3 with USP27 (Fig. 1J), 'as indicated'; method, cells and tags not named for these panels

How did the binding turn out when “USP27 truncated mutant with the C-terminal UCH domain deleted (domain or fragment)” was run?
Its binding is “no binding”.

Source: article PMC8752572
